Source: publication PMC11300456

Chains of the proteins cited; added tags and fusions are not shown.
UniProt P04198: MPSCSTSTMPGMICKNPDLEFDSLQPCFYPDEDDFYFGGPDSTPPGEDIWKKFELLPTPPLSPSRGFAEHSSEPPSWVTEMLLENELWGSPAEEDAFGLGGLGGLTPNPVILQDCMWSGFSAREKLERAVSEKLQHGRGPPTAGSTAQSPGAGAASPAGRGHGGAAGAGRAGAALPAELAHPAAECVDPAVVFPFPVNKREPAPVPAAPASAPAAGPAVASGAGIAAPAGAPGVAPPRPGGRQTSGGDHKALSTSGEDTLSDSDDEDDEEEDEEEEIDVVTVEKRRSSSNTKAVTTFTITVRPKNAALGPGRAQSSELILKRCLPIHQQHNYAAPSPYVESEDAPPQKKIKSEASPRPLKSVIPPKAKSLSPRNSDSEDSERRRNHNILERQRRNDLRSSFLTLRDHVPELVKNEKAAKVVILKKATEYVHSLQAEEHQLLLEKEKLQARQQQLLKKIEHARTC
UniProt P17066: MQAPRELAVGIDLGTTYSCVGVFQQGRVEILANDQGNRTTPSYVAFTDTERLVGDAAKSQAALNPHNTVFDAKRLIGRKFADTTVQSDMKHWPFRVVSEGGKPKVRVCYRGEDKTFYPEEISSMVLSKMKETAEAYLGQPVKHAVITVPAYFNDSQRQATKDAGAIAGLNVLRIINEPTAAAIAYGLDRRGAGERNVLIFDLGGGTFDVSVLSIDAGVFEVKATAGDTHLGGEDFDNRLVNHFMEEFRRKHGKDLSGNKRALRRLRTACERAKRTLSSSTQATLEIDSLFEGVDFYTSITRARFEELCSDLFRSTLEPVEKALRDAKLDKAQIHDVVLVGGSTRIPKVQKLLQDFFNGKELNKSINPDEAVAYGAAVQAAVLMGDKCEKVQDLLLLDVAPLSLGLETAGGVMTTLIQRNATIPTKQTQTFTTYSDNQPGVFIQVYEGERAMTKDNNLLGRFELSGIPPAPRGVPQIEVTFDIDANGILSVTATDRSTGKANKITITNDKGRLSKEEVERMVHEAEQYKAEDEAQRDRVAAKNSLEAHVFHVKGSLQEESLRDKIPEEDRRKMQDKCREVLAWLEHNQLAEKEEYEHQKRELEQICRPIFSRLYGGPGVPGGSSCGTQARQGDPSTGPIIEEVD
UniProt P11142: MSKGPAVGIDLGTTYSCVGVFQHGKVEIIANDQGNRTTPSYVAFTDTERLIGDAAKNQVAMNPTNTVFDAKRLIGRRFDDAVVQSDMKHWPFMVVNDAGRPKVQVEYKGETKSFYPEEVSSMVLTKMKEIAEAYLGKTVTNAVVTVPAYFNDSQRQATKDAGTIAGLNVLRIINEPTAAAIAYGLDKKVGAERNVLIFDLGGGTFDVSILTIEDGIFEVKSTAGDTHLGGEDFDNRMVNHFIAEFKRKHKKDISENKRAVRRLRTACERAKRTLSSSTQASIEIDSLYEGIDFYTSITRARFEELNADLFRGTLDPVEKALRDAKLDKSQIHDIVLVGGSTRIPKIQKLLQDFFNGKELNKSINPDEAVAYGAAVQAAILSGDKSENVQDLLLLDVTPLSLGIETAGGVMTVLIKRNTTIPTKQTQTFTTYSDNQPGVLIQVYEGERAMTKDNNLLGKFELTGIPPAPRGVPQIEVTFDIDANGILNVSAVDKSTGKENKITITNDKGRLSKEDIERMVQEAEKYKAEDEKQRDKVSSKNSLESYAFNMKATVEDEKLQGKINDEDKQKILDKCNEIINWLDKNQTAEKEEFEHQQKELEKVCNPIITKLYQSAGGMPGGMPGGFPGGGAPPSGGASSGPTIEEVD

Biological target: N-Myc (construct and cells not stated for the experiment) (UniProt P04198)
Assay: affinity purification with mass spectrometry; immunoprecipitation pull-down of N-Myc, label-free mass spectrometry; hits: protein quantification > 100 compared to the negative control group; cells not given

| binding | Substance |
| --- | --- |
| binds | HSPA6 (from UniProt P17066 1-643) |
| binds | HSPA8 (HSC70) (from UniProt P11142 1-646) |

No constants are given. Whether binding was seen depends on the method and setting. Binding seen in cells or lysates may run through a third protein. Here binding means that the protein was enriched with, or labelled near, the bait; the list need not be complete.
